# According to the supplement of paper PMC10338343:
# ± gives the standard deviation. Only a part is listed here, and it is no random draw. The uncertainty is large for many entries.
# Tested on: MIWI (PIWIL1) piRISC loaded with piRNA #1 (30 nt)
# Test: pre-steady-state target cleavage rate (min^-1); MIWI and MILI are mouse PIWI proteins and EfPiwi is from a freshwater sponge; tags in brackets are library labels; higher = faster piRNA-guided slicing of the target
# Settings: guide: piRNA #1 5'p-UGAGGUAGUAGGUUGUAUAGUAUCCAGAGG; auxiliary factor: 500 nM mouse GTSF1
# Outline: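 The pre-steady-state cleavage rate was obtained by Cleave-'n-Seq with a burst-and-steady-state fit. A transcribed, DNA-blocked target RNA library (0.1 nM) was mixed with 1 nM active affinity-purified piRISC carrying one synthetic guide, with or without 500 nM GTSF1 partner protein, in HEPES–potassium acetate buffer at 33 °C for 0–8 or 0–960 min. Uncleaved targets were sequenced and normalised to depth and to weakly complementary targets, with three trials pooled and k3 capped at 0.0001 min^-1.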
row,Sequence,pre-steady-state target cleavage rate
1,GGAGACCUAUGAUUACAACCUACUACCUUCA,0.000977 ± 0.004
2,GGAGACCUAUGAUAUGAACCAACUACGUCA,0.000102 ± 0.03
3,GGUCUGGAUACUAUACAACCUCACUACCUCA,0.00192 ± 0.0039
4,GGAGAGGAUACUAUACAACCUACCACCUCA,0.849 ± 0.049
5,GCUCUCGAUACUUUACAACCUACUACCUCA,1.69 ± 0.11
6,CCUCGGGAUACUAUACAACCUACUACCUCA,2.3 ± 0.16
7,GGAGACCUAUGAUUACAACCUACUACUCUCA,0.00131 ± 0.0063
8,GGAGACCUAUGAUUACAUCCUACUACCACA,0.00154 ± 0.0047
9,CCUCUCGAUACUAUACAACCUACUACCUCA,2.01 ± 0.12
10,GGACUGGAUACGAUACAACCUACUACCUCA,1.64 ± 0.1
11,CCUCUGGUUACUAUACAACCUACAACCUCA,1.28 ± 0.089
12,GGUCUGGAUACUAUACAACCUAGUUCCUCA,0.000962 ± 0.0052
13,GGACUGGAUACUAUACAACCUAUACCUCA,0.00112 ± 0.0077
14,GGAGACCUAUGAUUAACAACCUACUACCUCA,0.00262 ± 0.0033
15,GCUCUGGAUACUAUACAACGAUCUACCUCA,0.000946 ± 0.011
16,GGAGACCAUACUAUACAACCUACUACCUACA,1.77 ± 0.18
17,GGUCUGGAUACUAUACAACGCUACUACCUCA,0.000506 ± 0.01
18,GGAGAGGAUACGUAUACAACCUACUACCUCA,0.484 ± 0.047
19,GGAGACCUAUGAUAACAAGCUACUUCCUCA,0.00013 ± 0.026
20,GGACUGGAUACUAUACAACCUACUCCUCA,0.00205 ± 0.0044

row,Sequence,pre-steady-state target cleavage rate
1,GGACUGGAUACUAUACGAACCUACUACCUCA,0.0008 ± 0.011
2,GGAGUGGAUACUAUACUACCUACAACCUCA,0.428 ± 0.052
3,CCUCUGGUUACUAAACAACCUACUACCUCA,2.34 ± 0.16
4,GCUCUGCAUUCUAUACAACCUACUACCUCA,1.65 ± 0.11
5,GGUCUGGAUACUAUACAAGCCUACUACCUCA,0.000939 ± 0.0083
6,GGUCUGGAUACUAUACACACCUACUACCUCA,0.000625 ± 0.013
7,GCUCUCCAUACUAUACAACCUACUACCUCA,2.13 ± 0.13
8,GGAGACCUAUCUAUACUACCUACUACCUCA,0.0899 ± 0.011
9,CCUCAUGGAUACUAUACAACCUACUACCUCA,2.31 ± 0.13
10,CCUCUGGAUACUAUACAACCUACUUACCUCA,2.2 ± 0.14
11,GCUCUGGAUACUAUACAACGUACUUCCUCA,0.486 ± 0.045
12,GGAGACCUAUGAUAGCAACCUACUACCUCA,0.000286 ± 0.0082
13,GGACCUGGAUACUAUACAACCUACUACCUCA,1.96 ± 0.14
14,GGACUAGAUACUAUACAACCUACUACCUCA,1.77 ± 0.1
15,GCUCUGCGAUACUAUACAACCUACUACCUCA,2.02 ± 0.12
16,CCUCUGGAUAGUAUACAACCUACUUCCUCA,0.21 ± 0.034
17,GGACUGGAUACUAUACAACCUACUAGGUCA,0.000363 ± 0.0092
18,GGAGUGGAUACUAUACAACCUACACCUCA,0.000502 ± 0.0064
19,CCACAGGAUACUAUACAACCUACUACCUCA,1.87 ± 0.13
20,GGUCUGGAAACUAUACAACCAACUACCUCA,0.138 ± 0.015

# A run of entries from the list above:
row,Sequence,pre-steady-state target cleavage rate
10,CCUCUGGAUACUAUACAACCUACUUACCUCA,2.2 ± 0.14
11,GCUCUGGAUACUAUACAACGUACUUCCUCA,0.486 ± 0.045
12,GGAGACCUAUGAUAGCAACCUACUACCUCA,0.000286 ± 0.0082
